Data on 68 sequences can be found in PubChem BioAssay AID1508600 (Functional Genomics Laboratory (NCATS/FGL), 2020).

Out of some 53,000 sequences screened, about 3,700 (7%) were called active.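 The calls were made as follows: active = gene knockdowns whose robust z-score for IL-1 alpha signal is at least 2 or at most -2, so actives lie on both sides; inactive = the rest.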 This is one part of the list.

This assay in a line: Components of the Cytosolic LPS Sensing Pathway: Gene Identification via Genome-wide siRNA Screen.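 Also: robust z of the log signal after scaling to non-targeting control siRNA wells of the plate.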 The following applies: RAW264.7 macrophages, IL-1a HTRF, actives lie on both sides, screened at 100 nM (by protocol), cells primed 5 h with Pam3CSK4 first. The gist of the method: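 Using IL-1a HTRF as read-out, the screen measured release from RAW264.7 cells after 48h siRNA knockdown (100 nM), 5 h Pam3CSK4 priming and 24 h cytosolic LipidA. Values were expressed relative to negative-control wells as robust z-scores.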
Background: In TR-FRET formats the signal depends on donor and acceptor labels being close together.
As for GGACAAGAGGCUUUCAUAUTT against Gabrb1, the z-score was inactive: -0.405.
Turning to GGGAGAUUUGUUCUAGUUUTT against E2f2, the z-score was inactive: -0.402.
For GGAGCAUUAGUCAUUGUUATT against Hsd17b4 the value was inactive: 1.82; for GGAAAGUGGAAGACAUUUUTT against Olfr1324, inactive: 0.0724.
For GGAUAGACUGGACAGCAGCTT against Retn the value was inactive: -0.276.
For GGGAGAUGCAACCUCUCUUTT against Dennd5b the value was active: 2.91.
Take GGACAUGGUCCUUCCUAAATT against Arl8b: the z-score was inactive: 0.944.
For GGUGAUCUUCAAAUUGGAGTT against Zfp90 the value was inactive: -1.19; for GGACUGUUUUGUCUUGAAGTT against Gm5124, inactive: -1.04.
For UCGACUACCUUUGAGUCAGTT against Hoxa4 the value was inactive: -0.107; for “GUUUCAAGUAUGUUCUGCATT against A430072C10Rik”, inactive: -0.476; for CGGUACAGGGUAAAGGACATT against Prss41, inactive: 0.00568.
For “GGAAUGUACCAGAAAUACUTT against 4921504E06Rik” the value was active: 3.01.
On to GGAAGAUGGAUUGUUUCUUTT against F5, for which the z-score was inactive: 0.653.
For CCGCAUCCAGGUUACUACATT against Adcy5 the value was inactive: 1.04; for GCUUGCAUGUACAGACAUUTT against Olfr517, inactive: 0.398; for GGAGCUGUUCAGACCCAUUTT against E2f7, inactive: -0.209.
For AACCAUGAUGCUUACGUUUTT against S100a10 the value was inactive: 0.285.
For GUUGCUCAAAGUGUCCAAGTT against Rpl36 the value was inactive: 0.994.
On to CCUAAACCUUUAAAUCAGUTT against Gsdma, for which the z-score is inactive: -0.448.
For GCUUGCUUGACCUAACUAGTT against Fbxo41 the value was inactive: 1.32; for GGAAUUACGAAGCUGUGUGTT against Cdkl3, active: -2.36; for GGCUUCUGAUCUUACCUGGTT against Smim12, inactive: 0.683.
For CCACACUGCAGUGUCAGAATT against Olfr490 the value was inactive: 1.82; for GCAGGCCUACCUUACCCUATT against Adam32, inactive: -0.264; for GGACAUGACUCUAAAAAAATT against Slc44a3, active: 4.43.
For GGUUAAUGCCCGAUGAAGGTT against Gdap1 the value was inactive: -0.546.
For CGUUCUAUGGAAACUGGAGTT against Acot1, the z-score is active: 2.42.
For GGUAUUUCCUAAGUUGCGCTT against Sgsm1 the value was inactive: 1.34.
For CCGAAUGUGCCUUUAAGAATT against Sema4a the value was inactive: 1.06; for GCUCACCAAGGUCAACUUUTT against Pramel37, inactive: 0.363.
For GGCUUUUGGAGAAAAAGGATT against Nus1 the value was inactive: 1.92; for GGUUUUUGAGCCAUAUCCATT against Fam122b, inactive: -0.817.
With CCCUUUAAUACAUACAGUUTT against Mesp2, the z-score is inactive: 1.14.
For GCCACAACUUAAUUUUCUGTT against Nav3 the value was inactive: -0.305.
For CGCAUUUGAAGUGUUCGACTT against Efcab2 the value was inactive: 0.195; for GGUAGUGUGAUCAAGACACTT against Spred2, inactive: 1.08.
For GCACAGUCACUAGCUGAAUTT against Prr27 the value was inactive: 1.1; for GGCACAAGGCAACUGACUATT against Atp2a1, inactive: -1.44.
As to GGUCCUAGGCCUACUCAUCTT against Cd46, the z-score was inactive: -0.318.
For GGAUUUUCCAGCCAAGGAATT against Smpd4 the value was inactive: 0.364; for GGACAAAGAAGAUUCCAUUTT against Ctps2, inactive: 0.747.
For GGACCUCAUGAGAAAUAUGTT against Galnt17 the value was inactive: 0.871; for GAGUGCAUUCUUUUGGCAUTT against Olfr5, inactive: 0.508.
For GAGCUGAAGAAGUGCUCUUTT against Rarres2 the value was inactive: -1.62; for “GGCAGUACAACUGGUCUACTT against 0610040J01Rik”, active: 2.21.
For the sequence CUCUCGAACAAUCAACCACTT against Olfr315, the z-score was active: 2.05.
For GCUGGCUAGCCAUAACCAUTT against Spata21 the value was inactive: 1.02; for GCAAGUGAGUUAGCAGUCATT against Atp2c1, active: -2.23; for GCAACGAUCUGAGAAAAUUTT against Intu, inactive: -0.593.
For GGUCAUUUCCUUCGCUGGATT against Olfr739 the value was inactive: -0.962; for GGAUUUGUGUCCAUCGUGCTT against Olfr66, inactive: 0.00905.
Turning to GGAGCUGUCUCUACGAAACTT against Myoz3, the z-score is inactive: 1.27.
For GGGAGAAAUUCUGUAUUCATT against Aldh5a1 the value was inactive: -1.1; for GGAGUCUAAGUUAUAAUCUTT against Mtg1, inactive: 2.
With GCCGAUGAAGCCUUAUUGCTT against Bfsp1, the z-score is inactive: 0.624.
With GCGACUGAGUGACUAUGCUTT against Kcnn3, the z-score is inactive: -1.59.
For GCAGGUUAGAGUCACUUGUTT against Trim67 the value was inactive: 0.143; for GGUUCCUACGCUUCAUUCCTT against Cntnap4, inactive: 1.35; for GGAGUCUUAAAAGCAAAGATT against Serpinb11, inactive: -0.0719.
For GGCUCAAAGAAUAUGCCAATT against Rad54b the value was inactive: 0.99; for GCCAGAAUUUUAGCUAGUATT against Steap4, inactive: 0.338; for GUUAACCAAAACAAAGGCUTT against H2ac4, inactive: -1.02.
As to CGUGUGUUACUUCUCAGACTT against Crtam, the z-score was inactive: 1.15.
For GAUUACCCAACGUACAGCUTT against Krt74 the value was inactive: -1.1; for GGUCCUACAUAAUACAACATT against Myo19, inactive: 0.902.
For CGGAUAUUUGGCAUGGUCCTT against Slc5a4b the value was inactive: 1.25.
For GGCAACAACACAUUCAGAGTT against Enah the value was inactive: 0.713.
